Measurements reported in PubChem BioAssay AID1508588 (Peter MacCallum Cancer Centre, 2020).

Purpose: 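Knock-downs boosting vemurafenib effects on melanoma cell growth or lactate release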 (primary screen)
Cell system: human WM266.4 melanoma cells (BRAF V600 mutant)
Knock-down reagent: siRNA pool against human genes, 40 nM
Timing: 96 h from transfection to read-out
Challenge: vemurafenib 300 nM (about IC25), added 48 h after transfection, for 48 h; comparison arm got DMSO vehicle only
Measured: 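Ratios to non-targeting siRNA for cell gain, counted as DAPI nuclei after minus before drug and averaged over two replicates, and for absorbance-read medium lactate per cell; both binned into fold-change classes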
Scale: cell gain with vemurafenib: higher = more cell gain than with non-targeting siRNA; lactate per cell with vemurafenib: higher = more lactate made per cell
Call rule: 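a knock-down counts as enhancing when its fold-change classes with vehicle and with vemurafenib, taken together, show a stronger drug effect on cell gain or lactate per cell; exact class pairs not stated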
Calls: active = enhances vemurafenib effect; inactive = no enhancement seen
In all, the deposit lists about 18,000 reagents; below is a random part of them. 790 of them (4.4%) count as active. 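Calls rest on a combination of fold-change classes in drug and vehicle arms, not all shown here.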

LARP7 (La ribonucleoprotein 7, transcriptional regulator) → cell gain with vemurafenib: 0.36; lactate per cell with vemurafenib: 1.41; Call: inactive
HEBP1 (heme binding protein 1) → cell gain with vemurafenib: 0.26; lactate per cell with vemurafenib: 0.57; Call: active
MYH14 (myosin heavy chain 14) → cell gain with vemurafenib: 0.32; lactate per cell with vemurafenib: 0.62; Call: inactive
IFT172 (intraflagellar transport 172) → cell gain with vemurafenib: 0.45; lactate per cell with vemurafenib: 1.48; Call: inactive
PITPNA (phosphatidylinositol transfer protein alpha) → cell gain with vemurafenib: 0.79; lactate per cell with vemurafenib: 0.9; Call: inactive
ARPC2 (actin related protein 2/3 complex subunit 2) → cell gain with vemurafenib: 0.21; lactate per cell with vemurafenib: 0.02; Call: active
NPIPB15 (nuclear pore complex interacting protein family member B15) → cell gain with vemurafenib: 0.16; lactate per cell with vemurafenib: 2.12; Call: inactive
DAGLB (diacylglycerol lipase beta) → cell gain with vemurafenib: 0.96; lactate per cell with vemurafenib: 0.7; Call: inactive
YDJC (YdjC chitooligosaccharide deacetylase homolog) → cell gain with vemurafenib: 0.57; lactate per cell with vemurafenib: 0.84; Call: inactive
BEST2 (bestrophin 2) → cell gain with vemurafenib: 0.89; lactate per cell with vemurafenib: 0.94; Call: inactive
TM2D1 (TM2 domain containing 1) → cell gain with vemurafenib: 0.88; lactate per cell with vemurafenib: 0.78; Call: inactive
ZNF625 (zinc finger protein 625) → cell gain with vemurafenib: 0.69; lactate per cell with vemurafenib: 1.04; Call: inactive
C16orf86 (chromosome 16 open reading frame 86) → cell gain with vemurafenib: 1.05; lactate per cell with vemurafenib: 0.6; Call: inactive
CNBP (CCHC-type zinc finger nucleic acid binding protein) → cell gain with vemurafenib: 0.61; lactate per cell with vemurafenib: 1.32; Call: inactive
ADRB3 (adrenoceptor beta 3) → cell gain with vemurafenib: 0.28; lactate per cell with vemurafenib: 1.44; Call: inactive
PRR35 (proline rich 35) → cell gain with vemurafenib: 0.66; lactate per cell with vemurafenib: 1.71; Call: inactive
TFAP2E (transcription factor AP-2 epsilon) → cell gain with vemurafenib: 0.5; lactate per cell with vemurafenib: 1.57; Call: inactive
MSS51 (MSS51 mitochondrial translational activator) → cell gain with vemurafenib: 0.62; lactate per cell with vemurafenib: 0.94; Call: inactive
OR9G1 (olfactory receptor family 9 subfamily G member 1) → cell gain with vemurafenib: 0.92; lactate per cell with vemurafenib: 1.18; Call: inactive
IFT27 (intraflagellar transport 27) → cell gain with vemurafenib: 0.87; lactate per cell with vemurafenib: 0.45; Call: inactive
P3H2 (prolyl 3-hydroxylase 2) → cell gain with vemurafenib: 0.41; lactate per cell with vemurafenib: 0.7; Call: active
NDUFV1-DT (NDUFV1 divergent transcript) → cell gain with vemurafenib: 0.67; lactate per cell with vemurafenib: 1.68; Call: inactive
TLX1NB (TLX1 neighbor) → cell gain with vemurafenib: 0.35; lactate per cell with vemurafenib: 1.09; Call: inactive
IMMP2L (inner mitochondrial membrane peptidase subunit 2) → cell gain with vemurafenib: 0.38; lactate per cell with vemurafenib: 0.71; Call: inactive
RCAN1 (regulator of calcineurin 1) → cell gain with vemurafenib: 0.5; lactate per cell with vemurafenib: 0.66; Call: inactive
RRP1B (ribosomal RNA processing 1B) → cell gain with vemurafenib: 0.6; lactate per cell with vemurafenib: 0.74; Call: inactive
GFUS (GDP-L-fucose synthase) → cell gain with vemurafenib: 0.3; lactate per cell with vemurafenib: 2.5; Call: inactive
NTAQ1 (N-terminal glutamine amidase 1) → cell gain with vemurafenib: 0.83; lactate per cell with vemurafenib: 0.49; Call: active
MVB12B (multivesicular body subunit 12B) → cell gain with vemurafenib: 0.27; lactate per cell with vemurafenib: 2.37; Call: inactive
CWC22 (CWC22 spliceosome associated protein) → cell gain with vemurafenib: 0.11; lactate per cell with vemurafenib: 0.29; Call: inactive
TMEM92 (transmembrane protein 92) → cell gain with vemurafenib: 0.93; lactate per cell with vemurafenib: 1.57; Call: inactive
CD99 (CD99 molecule (Xg blood group)) → cell gain with vemurafenib: 0.27; lactate per cell with vemurafenib: 1.14; Call: inactive
PSMA6 (proteasome 20S subunit alpha 6) → cell gain with vemurafenib: 0.09; lactate per cell with vemurafenib: 1.7; Call: inactive
MRPS7 (mitochondrial ribosomal protein S7) → cell gain with vemurafenib: 0.8; lactate per cell with vemurafenib: 1.11; Call: inactive
RAB22A (RAB22A, member RAS oncogene family) → cell gain with vemurafenib: 0.53; lactate per cell with vemurafenib: 0.78; Call: inactive
NID2 (nidogen 2) → cell gain with vemurafenib: 0.71; lactate per cell with vemurafenib: 0.59; Call: inactive
OR51B2 (olfactory receptor family 51 subfamily B member 2) → cell gain with vemurafenib: 0.48; lactate per cell with vemurafenib: 1; Call: inactive
ARHGAP29 (Rho GTPase activating protein 29) → cell gain with vemurafenib: 0.53; lactate per cell with vemurafenib: 1.48; Call: inactive
ANKRD7 (ankyrin repeat domain 7) → cell gain with vemurafenib: 0.12; lactate per cell with vemurafenib: 1.5; Call: inactive
SCAND1 (SCAN domain containing 1) → cell gain with vemurafenib: 1.13; lactate per cell with vemurafenib: 0.62; Call: inactive

Taken from above:
Value of GFUS (GDP-L-fucose synthase) under “lactate per cell with vemurafenib”: 2.5
For “lactate per cell with vemurafenib”, TFAP2E (transcription factor AP-2 epsilon) has 1.57
For “lactate per cell with vemurafenib”, YDJC (YdjC chitooligosaccharide deacetylase homolog) is entered as 0.84
For “Call”, LARP7 (La ribonucleoprotein 7, transcriptional regulator) has inactive
Under “cell gain with vemurafenib”, ANKRD7 (ankyrin repeat domain 7) is entered as 0.12
